Series [1] is described as follows: Polarization by DNP (15 mM OXO63 radical, irradiating at 90940 MHz). Conditions: 5 M solution in water.
Series [2] can be described thus: Spectroscopic (13C-NMR) detection of H2O2 with hyperpolarized probe.

As for `O=C(c1ccccc1)[13C](=O)O` [^13C-BFA, ^13C-benzoylformic acid], the “buildup time constant of DNP polarization” value in series [1] (15 mM OXO63 radical) is recorded as 830 s. For the same compound, in series [1] (after 45 minutes, 15 mM OXO63), the enhancement factor is 5450 fold and the polarization was around 5%. In addition, in series [2] (5 mM probe, 100 mM phosphate buffer pH 7.8), the “time of maximum integrated ratio of benzoic acid (C1) peak to unlabeled BFA (C1) peak” value came out at 21 s. Further, in series [2] (hyperpolarized, 10-1000 μM H2O2, pH 7.8, in vitro), the “detection of hydrogen peroxide” value is “can detect micromolar concentrations of hydrogen peroxide in vitro”.

Values taken from patent US10245330B2, “Compositions and methods for imaging” (The Regents of the University of California, priority 2010, dated 2019).
